PubChem BioAssay AID1224826 | NIAID – 2016

Aim: 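Knock-downs that raise or lower Tnf reporter signal after endotoxin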 (primary screen)
Cell system: RAW264.7 G9 macrophages from mouse bearing reporters for p65 (GFP) and the Tnf promoter (mCherry)
Reagents: siRNA pool against mouse genes, 100 nM
Time to read-out: 16 h of LPS stimulation, after 2 days of siRNA transfection
Treatment: bacterial lipopolysaccharide (Salmonella minnesota R595), 10 ng/ml
Detection: 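Nuclear mCherry signal of the Tnf promoter reporter measured by imaging after background removal, scaled to each plate median and turned into robust z-scores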
Reading the numbers: Tnf reporter robust z-score: higher = stronger Tnf promoter reporter signal after LPS
Active means: 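a well counts as active at a score of -1.3 or below (Tlr4 knock-down control median) or above 3 (raised signal); controls and wells holding fewer than 50 cells are excluded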
Calls: active = Tnf reporter clearly lowered or raised; inactive = no clear change in Tnf reporter
Here is one part, drawn at random, of about 17,000 reagents. In the full data, about 1,110 (6.6%) were called active. 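Active means lowered or raised reporter signal; replicate intensities are raw and not normalised per plate.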 The numbers tell different reagents against one gene apart. A reagent listed more than once was tested more than once; the source does not tell the runs apart. Further read-outs or replicates are left out here.

Gene,reagent,Tnf reporter robust z-score,fewer than 50 cells in well,activity call
Pagr1a,1,,fewer than 50 cells per well; well left out of calls,inactive
Coro1a,1,-0.75,enough cells in well,inactive
Timeless,1,-1.16,enough cells in well,inactive
Krt15,1,-1.21,enough cells in well,inactive
AI987944,1,0.48,enough cells in well,inactive
Nckap5,1,-0.13,enough cells in well,inactive
Stmn2,1,-0.04,enough cells in well,inactive
Hoxd9,1,0.47,enough cells in well,inactive
Pramel39-ps,1,,fewer than 50 cells per well; well left out of calls,inactive
Clk2,1,,fewer than 50 cells per well; well left out of calls,inactive
Spag16,1,1.08,enough cells in well,inactive
A430057O09,1,-0.85,enough cells in well,inactive
Dnajb4,1,3.9,enough cells in well,active
Ppp1r3b,1,-0.32,enough cells in well,inactive
Myl4,1,-0.08,enough cells in well,inactive
Trpc4,1,0.62,enough cells in well,inactive
Kcna1,1,-0.42,enough cells in well,inactive
Ahcy,1,-0.72,enough cells in well,inactive
Hepacam2,1,0,enough cells in well,inactive
Haus2,1,,fewer than 50 cells per well; well left out of calls,inactive
Hmgb3,1,-0.38,enough cells in well,inactive
Lrrtm4,1,-1.09,enough cells in well,inactive
Tas2r104,1,,fewer than 50 cells per well; well left out of calls,inactive
Ptcd1,1,0.47,enough cells in well,inactive
Abi3,1,0.37,enough cells in well,inactive
Saxo4,1,,fewer than 50 cells per well; well left out of calls,inactive
Or2b28,1,-0.33,enough cells in well,inactive
Capn9,1,-0.38,enough cells in well,inactive
Mtnr1b,1,1.59,enough cells in well,inactive
Wnt2b,1,0.02,enough cells in well,inactive
Tap2,1,1.34,enough cells in well,inactive
Nsd2,1,-0.35,enough cells in well,inactive
Sema3f,1,0.44,enough cells in well,inactive
Ankk1,1,-0.63,enough cells in well,inactive
Stau2,1,1.6,enough cells in well,inactive
H2-M3,1,0.19,enough cells in well,inactive
Habp2,1,-0.94,enough cells in well,inactive
Wdcp,1,-1.75,enough cells in well,active
Txndc15,1,-1.12,enough cells in well,inactive
Nupr2,1,-0.95,enough cells in well,inactive
Plppr3,1,2.15,enough cells in well,inactive
Or6c2b,1,,fewer than 50 cells per well; well left out of calls,inactive
Rfng,1,0.39,enough cells in well,inactive
Carmil1,1,-0.96,enough cells in well,inactive
Carmil1,2,-1.07,enough cells in well,inactive

Reformatted: 10 of the entries above
Gene | reagent | Tnf reporter robust z-score | fewer than 50 cells in well | activity call
Pramel39-ps | 1 | – | fewer than 50 cells per well; well left out of calls | inactive
Clk2 | 1 | – | fewer than 50 cells per well; well left out of calls | inactive
Spag16 | 1 | 1.08 | enough cells in well | inactive
A430057O09 | 1 | -0.85 | enough cells in well | inactive
Dnajb4 | 1 | 3.9 | enough cells in well | active
Ppp1r3b | 1 | -0.32 | enough cells in well | inactive
Myl4 | 1 | -0.08 | enough cells in well | inactive
Trpc4 | 1 | 0.62 | enough cells in well | inactive
Kcna1 | 1 | -0.42 | enough cells in well | inactive
Ahcy | 1 | -0.72 | enough cells in well | inactive

The results go on.
Gene,reagent,Tnf reporter robust z-score,fewer than 50 cells in well,activity call
Nedd4l,1,0.71,enough cells in well,inactive
Tcf7l2,1,-0.38,enough cells in well,inactive
Cyp2f2,1,1.88,enough cells in well,inactive
Gsdme,1,-0.4,enough cells in well,inactive
Rnf151,1,-1.58,enough cells in well,active
Rtn4rl1,1,-0.93,enough cells in well,inactive
Zmym2,1,0.35,enough cells in well,inactive
Or4b12,1,2.02,enough cells in well,inactive
Galnt3,1,0.77,enough cells in well,inactive
Cald1,1,1.87,enough cells in well,inactive
Hamp,1,0.8,enough cells in well,inactive
Cdk8,1,1.33,enough cells in well,inactive
Syf2,1,1.21,enough cells in well,inactive
Cd300e,1,0.49,enough cells in well,inactive
Lrit2,1,0.15,enough cells in well,inactive
Trmt6,1,,fewer than 50 cells per well; well left out of calls,inactive
Bcl7b,1,-0.85,enough cells in well,inactive
Uncx,1,,fewer than 50 cells per well; well left out of calls,inactive
Tnfsf4,1,-0.65,enough cells in well,inactive
Derl1,1,1.34,enough cells in well,inactive
Dema1,1,-0.24,enough cells in well,inactive
Tapt1,1,,fewer than 50 cells per well; well left out of calls,inactive
Tubb3,1,1.31,enough cells in well,inactive
Rabif,1,1.32,enough cells in well,inactive
Serpina1b,1,-1.2,enough cells in well,inactive
Camk4,1,-0.86,enough cells in well,inactive
Camk4,1,-0.07,enough cells in well,inactive
Katnbl1,1,-0.69,enough cells in well,inactive
Hand2,1,-1.09,enough cells in well,inactive
Tpp2,1,-0.72,enough cells in well,inactive
